Source: PMC6195791, “C9orf72, a protein associated with amyotrophic lateral sclerosis (ALS) is a guanine nucleotide exchange factor” (PeerJ, 2018)
No constants are given. Whether binding was seen depends on the method and setting. Some binding calls cover weakened binding; strength is not graded here. Sequences can lack the tags named with a protein.

Amino acid sequences for entries named in this document (tags omitted).
UniProt P61586: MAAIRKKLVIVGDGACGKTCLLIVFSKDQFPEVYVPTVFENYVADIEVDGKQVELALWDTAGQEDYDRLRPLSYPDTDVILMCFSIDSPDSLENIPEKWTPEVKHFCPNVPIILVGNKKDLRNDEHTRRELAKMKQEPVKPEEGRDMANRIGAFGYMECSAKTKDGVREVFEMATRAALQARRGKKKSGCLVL
UniProt P51149: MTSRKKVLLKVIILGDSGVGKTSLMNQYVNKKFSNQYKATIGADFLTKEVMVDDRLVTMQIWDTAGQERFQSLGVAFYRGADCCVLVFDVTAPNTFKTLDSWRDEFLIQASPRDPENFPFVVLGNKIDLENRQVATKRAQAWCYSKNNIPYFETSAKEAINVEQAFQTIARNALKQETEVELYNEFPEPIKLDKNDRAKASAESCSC
UniProt P60953: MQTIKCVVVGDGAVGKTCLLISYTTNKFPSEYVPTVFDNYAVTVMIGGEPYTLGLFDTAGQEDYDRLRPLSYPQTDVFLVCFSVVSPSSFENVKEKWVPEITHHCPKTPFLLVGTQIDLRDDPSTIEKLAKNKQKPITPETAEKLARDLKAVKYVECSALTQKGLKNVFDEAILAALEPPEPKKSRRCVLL

Key:
Assay in all cases: far-Western, overlay or dot blot; GTPases (bait) spotted at 50 pmoles on nitrocellulose, blocked with 5% milk in PBS plus 0.05% Tween-20, probed with 100 nM purified C9orf72 (prey) for at least 6-8 h at 4 °C, detected with polyclonal rabbit anti-C9orf72 antibody; both purified
RhoA = RhoA (UniProt P61586)
Rab11A = target: T1, Rab11A (UniProt P62491 1-216)
T1 construct: Rab11A, amplified from its cDNA clone and put into pGEX-6p-1 (BamHI/XhoI); about 25 kDa after tag cleavage; source: E. coli BL21CodonPlus(DE3)RIPL, purified (GST Sepharose 4B, PreScission cleavage, second GST Sepharose pass); not shown: GST, N-terminal, cleaved
T1 sequence (looked up): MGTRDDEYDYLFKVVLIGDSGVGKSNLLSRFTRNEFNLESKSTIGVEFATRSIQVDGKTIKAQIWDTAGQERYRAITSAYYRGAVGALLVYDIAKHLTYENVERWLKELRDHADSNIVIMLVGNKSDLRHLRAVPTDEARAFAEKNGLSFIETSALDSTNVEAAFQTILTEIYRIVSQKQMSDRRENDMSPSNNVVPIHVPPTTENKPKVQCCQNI

Rab7A = Rab7A (UniProt P51149)
Cdc42 = Cdc42 (UniProt P60953)
Rab5A = target: T2, Rab5A (UniProt P20339 1-215)
T2 construct: Rab5A, amplified from its cDNA clone and put into pGEX-6p-1 (BamHI/XhoI); about 25 kDa after tag cleavage; source: E. coli BL21CodonPlus(DE3)RIPL, purified (GST Sepharose 4B, PreScission cleavage, second GST Sepharose pass); not shown: GST, N-terminal, cleaved
T2 sequence (looked up): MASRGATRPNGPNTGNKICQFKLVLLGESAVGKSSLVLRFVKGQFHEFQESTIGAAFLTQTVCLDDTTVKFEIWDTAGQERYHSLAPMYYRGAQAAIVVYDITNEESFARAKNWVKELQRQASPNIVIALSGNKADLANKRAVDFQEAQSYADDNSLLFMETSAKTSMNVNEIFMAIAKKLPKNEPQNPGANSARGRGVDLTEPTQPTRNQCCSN

Measured: binding

B1: C9orf72 (N-terminal His6, pOPINF-C9orf72) (natural protein, human, UniProt Q96LT7 1-481, looked up)
chain: MSTLCPPPSPAVAKTEIALSGKSPLLAATFAYWDNILGPRVRHIWAPKTEQVLLSDGEITFLANHTLNGEILRNAESGAIDVKFFVLSEKGVIIVSLIFDGNWNGDRSTYGLSIILPQTELSFYLPLHRVCVDRLTHIIRKGRIWMHKERQENVQKIILEGTERMEDQGQSIIPMLTGEVIPVMELLSSMKSHSVPEEIDIADTVLNDDDIGDSCHEGFLLNAISSHLQTCGCSVVVGSSAEKVNKIVRTLCLFLTPAERKCSRLCEAESSFKYESGLFVQGLLKDSTGSFVLPFRQVMYAPYPTTHIDVDVNTVKQMPPCHEHIYNQRRYMRSELTAFWRATSEEDMAQDTIIYTDESFTPDLNIFQDVLHRDTLVKAFLDQVFQLKPGLSLRSTFLAQFLLVLHRKALTLIKYIEDDTQKGKKPFKSLRNLKIDLDLTAEGDLNIIMALAEKIKPGLHSFIFGRPFYTSVQERDVLMTF
notes: the homology model counts residues up to 481; No tag cleavage is described; also called His6-C9orf72; recombinant C9orf72; source: Sf9, baculovirus, purified (HisTrap HP, Superdex200 size-exclusion chromatography); not shown: His6, N-terminal, kept
binds: all assays above
